Results reported in US9952227B2, “Method for detecting bilirubin” (Research Foundation of the City University of New York, priority 2015, dated 2018).

Test: O2 requirement for fluorescence
Type: physicochemical

B1: Chlopsid FP II: bilirubin-inducible fluorescent fatty acid-binding protein from Kaupichthys n. sp., SEQ ID NO: 2 (protein)
chain: MFEDFLGTWECIDSQNFGAYLAAVGAPPVLSDRADATRPTVYFNRDGDKLSLKVEHGPPPLKDVILSFKLGEEFDEHPTDGRKCKTLVTFEGDKLLYLQKWDGKETVVVREIRDGNVVATLSHEGVVALRVYKKVAGPTA
modifications: Kaupichthys hyoproroides
Question: For B1, which O2 requirement is on record?
Answer: The O2 requirement was “no”.

B2: Chlopsid FP I: bilirubin-inducible fluorescent fatty acid-binding protein from Kaupichthys hyoproroides, SEQ ID NO: 1 (protein)
chain: MFEDFLGTWKCIDSQNFGAYLAAIGAPPVLSERADATRPTVHFNRDGDKLSLKVEHGPPPLKDVLLSFKLGEEFDEHPTDGRKCKTLVTFEGDKLLYLQKWDGKETVVVREIRDGNVVATLSHEGVVALRVYKKVAGPTALE
modifications: Kaupichthys hyoproroides
Question: Which O2 requirement does the source give for B2 here?
Answer: The O2 requirement was “no”.
